Measurements published in the supplement of paper PMC11637464.
Structures can show the parent of a compound that is named as a salt. The list shows a part of the results. Repeats are few or missing, and single values can be far off.

System: primary mouse Muller glia with Ascl1 overexpression
Assay: total cells recovered per well; higher = more cells recovered
Procedure: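 Primary P11 mouse Muller glia carrying dox-inducible Ascl1 were treated with Tocriscreen Stem Cell Library compounds at 0.1, 1 or 10 uM together with doxycycline for 5 days, then profiled by sci-Plex hashing and sci-RNA-seq2. Cells were annotated by marker genes and cell-type counts per well were size-factor adjusted. Read-outs are the log2 fold change of Neuronal (NeuPre + bipolar) and ProL cell counts versus the Ascl1-only control wells of the same collection day, plus the raw number of recovered cells per well. There is one well per dose, and wells with fewer than 20 cells were discarded.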

Row | Structure (SMILES) | total cells recovered per well (0.1 µM) | total cells recovered per well (1 µM) | total cells recovered per well (10 µM)
1 | COc1cccc(-c2cc(=O)c3ccccc3o2)c1N (collection day: 1) | 68 | 57 | 43
2 | Cc1cccc(-c2[nH]ncc2-c2ccc3ncccc3n2)n1 (collection day: 2) | 47 | 80 | 48
3 | O=C(O)CCCc1ccccc1 [Sodium 4-Phenylbutyrate] (collection day: 1) | 124 | 108 | 86
4 | CCN(CC)S(=O)(=O)Nc1cccc(-c2ccc3c(NC(=O)C4CC4)n[nH]c3c2)c1 (collection day: 2) | 125 | 111 | 140
5 | Nc1ncn([C@@H]2O[C@H](CO)[C@@H](O)[C@H]2O)c(=O)n1 [5-Azacytidine] (collection day: 2) | 51 | 65 | 101
6 | CC1(C)CCC(C)(C)c2cc(C(=O)Nc3ccc(C(=O)O)cc3)ccc21 (collection day: 1) | 79 | 66 | –
7 | Nc1[nH]ncc1-c1cc(Cl)ccc1Oc1cc(F)c(S(=O)(=O)Nc2cscn2)cc1Cl (collection day: 2) | 141 | 169 | 116
8 | O=C(O)c1ccccc1C(=O)Nc1ccc(-c2ccccc2)cc1 [Kartogenin] (collection day: 2) | 91 | 127 | 132
9 | O=C(O)c1ccc(S(=O)(=O)NC2CCCCC2)cc1 (collection day: 2) | 109 | 130 | 133
10 | CCCCC(CC)CNC(=N)NC(=N)NCCCCCCNC(=N)NC(=N)NCC(CC)CCCC (stereo not given) [Alexidine dihydrochloride] (collection day: 2) | 94 | – | –
11 | Cc1ccccc1NC(=O)Nc1ccc(CC(=O)N(C)[C@@H](CC(C)C)C(=O)NCC[C@H](NC(=O)[C@@H]2CCCN2S(=O)(=O)c2cc(Cl)cc(Cl)c2)C(=O)O)cc1 (collection day: 2) | 109 | 115 | 81
12 | C=C[C@@]1(C)CC(=O)[C@]2(O)[C@@]3(C)[C@@H](O)CCC(C)(C)[C@@H]3[C@H](O)[C@H](OC(C)=O)[C@@]2(C)O1 [Forskolin] (collection day: 1) | 58 | 58 | 45
13 | CC(=O)N(C)c1cccc(-c2ccc3nnc(C)n3n2)c1 (collection day: 2) | 110 | 117 | 107
14 | O=S(=O)(NCCNC/C=C/c1ccc(Br)cc1)c1cccc2cnccc12 [H 89 dihydrochloride] (collection day: 1) | 92 | 79 | –
15 | CC(C)N(CCCNC(=O)Nc1ccc(C(C)(C)C)cc1)C[C@H]1O[C@@H](n2ccc3c(N)ncnc32)[C@H](O)[C@@H]1O (collection day: 2) | – | 72 | 62

From entry 3 up to 5, copied from above:
Row | Structure (SMILES) | total cells recovered per well (0.1 µM) | total cells recovered per well (1 µM) | total cells recovered per well (10 µM)
3 | O=C(O)CCCc1ccccc1 [Sodium 4-Phenylbutyrate] (collection day: 1) | 124 | 108 | 86
4 | CCN(CC)S(=O)(=O)Nc1cccc(-c2ccc3c(NC(=O)C4CC4)n[nH]c3c2)c1 (collection day: 2) | 125 | 111 | 140
5 | Nc1ncn([C@@H]2O[C@H](CO)[C@@H](O)[C@H]2O)c(=O)n1 [5-Azacytidine] (collection day: 2) | 51 | 65 | 101
